From paper PMC10502114
Results are given in words; binding and its absence hold for the method and conditions named. Binding seen in cells or lysates may run through a third protein. Some binding calls cover weakened binding; strength is not graded here.

Amino acid sequences for entries named in this document (tags omitted).
UniProt Q7Z5J4: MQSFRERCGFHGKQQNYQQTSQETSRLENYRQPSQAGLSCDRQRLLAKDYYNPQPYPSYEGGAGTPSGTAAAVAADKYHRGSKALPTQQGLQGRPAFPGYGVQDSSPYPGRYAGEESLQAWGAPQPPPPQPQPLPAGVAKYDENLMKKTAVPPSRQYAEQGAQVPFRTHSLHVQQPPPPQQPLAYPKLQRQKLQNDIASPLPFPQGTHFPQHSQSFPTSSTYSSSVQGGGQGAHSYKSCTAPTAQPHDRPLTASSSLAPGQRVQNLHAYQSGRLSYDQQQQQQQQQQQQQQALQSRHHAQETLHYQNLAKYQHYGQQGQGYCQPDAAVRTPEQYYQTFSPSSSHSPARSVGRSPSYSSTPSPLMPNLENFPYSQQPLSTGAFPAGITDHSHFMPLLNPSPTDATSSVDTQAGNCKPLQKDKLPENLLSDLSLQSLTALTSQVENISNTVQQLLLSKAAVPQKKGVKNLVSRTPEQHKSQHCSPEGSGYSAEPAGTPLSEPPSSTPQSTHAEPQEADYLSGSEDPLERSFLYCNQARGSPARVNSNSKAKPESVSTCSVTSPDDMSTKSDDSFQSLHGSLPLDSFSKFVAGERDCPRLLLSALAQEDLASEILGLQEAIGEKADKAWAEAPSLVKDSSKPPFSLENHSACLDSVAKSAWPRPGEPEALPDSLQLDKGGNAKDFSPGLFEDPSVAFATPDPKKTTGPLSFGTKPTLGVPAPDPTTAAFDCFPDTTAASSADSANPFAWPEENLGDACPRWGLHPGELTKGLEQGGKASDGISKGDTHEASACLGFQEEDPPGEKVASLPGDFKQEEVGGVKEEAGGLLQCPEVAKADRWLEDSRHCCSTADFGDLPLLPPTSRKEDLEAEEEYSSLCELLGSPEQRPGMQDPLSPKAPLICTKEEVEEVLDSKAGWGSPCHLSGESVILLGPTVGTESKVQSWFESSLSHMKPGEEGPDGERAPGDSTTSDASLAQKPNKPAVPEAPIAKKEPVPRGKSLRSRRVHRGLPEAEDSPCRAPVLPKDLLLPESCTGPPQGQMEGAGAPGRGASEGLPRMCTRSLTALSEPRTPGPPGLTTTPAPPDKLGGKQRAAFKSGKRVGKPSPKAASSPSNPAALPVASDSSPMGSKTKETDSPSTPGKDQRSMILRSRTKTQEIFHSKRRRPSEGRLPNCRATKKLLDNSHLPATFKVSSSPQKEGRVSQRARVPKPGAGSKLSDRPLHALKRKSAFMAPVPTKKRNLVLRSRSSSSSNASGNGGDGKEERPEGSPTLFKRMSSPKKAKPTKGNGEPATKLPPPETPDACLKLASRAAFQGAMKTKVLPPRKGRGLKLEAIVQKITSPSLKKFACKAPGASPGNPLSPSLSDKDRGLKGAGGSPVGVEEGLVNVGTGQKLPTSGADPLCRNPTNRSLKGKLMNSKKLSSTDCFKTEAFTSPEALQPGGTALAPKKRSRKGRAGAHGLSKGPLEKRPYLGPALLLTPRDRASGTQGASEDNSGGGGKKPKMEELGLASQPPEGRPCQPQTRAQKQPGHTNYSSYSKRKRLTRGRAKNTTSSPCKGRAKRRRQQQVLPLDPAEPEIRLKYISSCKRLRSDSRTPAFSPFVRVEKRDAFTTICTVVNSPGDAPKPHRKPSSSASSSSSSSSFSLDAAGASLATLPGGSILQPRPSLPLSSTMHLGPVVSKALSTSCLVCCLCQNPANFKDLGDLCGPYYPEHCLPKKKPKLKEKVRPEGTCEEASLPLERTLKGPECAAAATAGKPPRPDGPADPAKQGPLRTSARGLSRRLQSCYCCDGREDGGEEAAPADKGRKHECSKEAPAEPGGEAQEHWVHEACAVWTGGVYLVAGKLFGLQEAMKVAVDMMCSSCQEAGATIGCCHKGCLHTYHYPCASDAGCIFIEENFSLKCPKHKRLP

Assays:
[1] = target: lysine methyltransferase 2A (KMT2A) (human (endogenous in L3.6pl, L3.6sl, A13A)) (UniProt Q03164); assay: co-IP; endogenous proteins; anti-PHF5A, anti-PHF14 or anti-KMT2A versus control IgG Co-IP from nuclear protein extracts of CSC-enriched tumorspheres (ABCG2+ L3.6pl, ABCG2+ L3.6sl, CD44+ L3.6sl, CD133+ A13A); Protein A/G agarose, western blot
[2] = target: lysine methyltransferase 2A (KMT2A) (human (endogenous in L3.6pl, L3.6sl, A13A)) (UniProt Q03164); assay: co-IP; endogenous proteins; anti-PHF5A Co-IP (L3.6pl, L3.6sl, HPDE6c7) or anti-KMT2A Co-IP (L3.6pl) from nuclear protein extracts of monolayer cultures lacking CSC enrichment; western blot

binding [1]	Molecule	binding [2]
binds	retinoic acid-induced 1 (RAI1) (from UniProt Q7Z5J4 1-1906)	no binding (condition: in L3.6pl monolayer cells)
binds	PHF14 (protein, UniProt O94880 1-948) MDRSSKRRQVKPLAASLLEALDYDSSDDSDFKVGDASDSEGSGNGSEDASKDSGEGSCSDSEENILEEELNEDIKVKEEQLKNSAEEEVLSSEKQLIKMEKKEEEENGERPRKKKEKEKEKEKEKEKEKEREKEKEKATVSENVAASAAATTPATSPPAVNTSPSVPTTTTATEEQVSEPKKWNLRRNRPLLDFVSMEELNDMDDYDSEDDNDWRPTVVKRKGRSASQKEGSDGDNEDDEDEGSGSDEDENDEGNDEDHSSPASEGGCKKKKSKVLSRNSADDEELTNDSLTLSQSKSNEDSLILEKSQNWSSQKMDHILICCVCLGDNSEDADEIIQCDNCGITVHEGCYGVDGESDSIMSSASENSTEPWFCDACKCGVSPSCELCPNQDGIFKETDAGRWVHIVCALYVPGVAFGDIDKLRPVTLTEMNYSKYGAKECSFCEDPRFARTGVCISCDAGMCRAYFHVTCAQKEGLLSEAAAEEDIADPFFAYCKQHADRLDRKWKRKNYLALQSYCKMSLQEREKQLSPEAQARINARLQQYRAKAELARSTRPQAWVPREKLPRPLTSSASAIRKLMRKAELMGISTDIFPVDNSDTSSSVDGRRKHKQPALTADFVNYYFERNMRMIQIQENMAEQKNIKDKLENEQEKLHVEYNKLCESLEELQNLNGKLRSEGQGIWALLGRITGQKLNIPAILRAPKERKPSKKEGGTQKTSTLPAVLYSCGICKKNHDQHLLLLCDTCKLHYHLGCLDPPLTRMPRKTKNSYWQCSECDQAGSSDMEADMAMETLPDGTKRSRRQIKEPVKFVPQDVPPEPKKIPIRNTRTRGRKRSFVPEEEKHEERVPRERRQRQSVLQKKPKAEDLRTECATCKGTGDNENLVRCDECRLCYHFGCLDPPLKKSPKQTGYGWICQECDSSSSKEDENEAERKNISQELNMEQKNPKK	no binding (condition: in L3.6pl monolayer cells)
